# Source: PubChem BioAssay AID188 (DTP/NCI, 2004)
# Values are animals surviving of animals treated; these mice carried no tumour. Counts of survivors are from the toxicity check (mostly the fifth day) where no day follows; animals may have died later. Schedule codes are those of the source, read here as Q, the interval in days (D) or hours (H), X, the number of doses.
# Test system: CD2F1 mice, nontumored, toxicity/survival
# Assay: NCI In Vivo Anticancer Drug Screen. Data for tumor model Nontumored Animals (Toxicity Test) in CD2F1 (CDF1) mice
structure (smiles),measurement,setting,value
Nc1nc([Se])c2ncn(C3OC(CO)C(O)C3O)c2n1 (stereo unspecified),survivor count,"dose: 0.25 mg/kg/injection, schedule: Q03HX024 (ip), vehicle: DMSO",8 of 8
same,survivor count,"dose: 0.5 mg/kg/injection, schedule: Q03HX016 (ip), vehicle: DMSO",8 of 8
same,survivor count,"dose: 0.5 mg/kg/injection, schedule: Q03HX024 (ip), vehicle: DMSO",8 of 8
same,survivor count,"dose: 1.0 mg/kg/injection, schedule: Q01DX009 (ip), vehicle: DMSO",8 of 8
same,survivor count,"dose: 1.0 mg/kg/injection, schedule: Q01DX009 (sc), vehicle: DMSO",8 of 8
same,survivor count,"dose: 1.0 mg/kg/injection, schedule: Q03HX008 (ip), vehicle: DMSO",8 of 8
same,survivor count,"dose: 1.0 mg/kg/injection, schedule: Q03HX016 (ip), vehicle: DMSO",8 of 8
same,survivor count,"dose: 1.0 mg/kg/injection, schedule: Q03HX024 (ip), vehicle: DMSO",8 of 8
same,survivor count,"dose: 2.0 mg/kg/injection, schedule: Q01DX009 (ip), vehicle: DMSO",8 of 8
same,survivor count,"dose: 2.0 mg/kg/injection, schedule: Q01DX009 (sc), vehicle: DMSO",8 of 8
same,survivor count,"dose: 2.0 mg/kg/injection, schedule: Q03HX008 (ip), vehicle: DMSO",8 of 8
same,survivor count,"dose: 2.0 mg/kg/injection, schedule: Q03HX016 (ip), vehicle: DMSO",8 of 8
same,survivor count,"dose: 2.0 mg/kg/injection, schedule: Q03HX024 (ip), vehicle: DMSO",8 of 8
same,survivor count,"dose: 2.0 mg/kg/injection, schedule: Q04DX003 (ip), vehicle: DMSO",8 of 8
same,survivor count,"dose: 2.0 mg/kg/injection, schedule: Q04DX003 (ip), vehicle: clinical formulation",4 of 4
same,survivor count,"dose: 2.0 mg/kg/injection, schedule: Q04DX003 (ip), vehicle: saline",4 of 4
same,survivor count,"dose: 4.0 mg/kg/injection, schedule: Q01DX009 (ip), vehicle: DMSO",8 of 8
same,survivor count,"dose: 4.0 mg/kg/injection, schedule: Q01DX009 (oral), vehicle: DMSO",8 of 8
same,survivor count,"dose: 4.0 mg/kg/injection, schedule: Q01DX009 (sc), vehicle: DMSO",8 of 8
same,survivor count,"dose: 4.0 mg/kg/injection, schedule: Q03HX008 (ip), vehicle: DMSO",8 of 8
same,survivor count,"dose: 4.0 mg/kg/injection, schedule: Q03HX016 (ip), vehicle: DMSO",8 of 8
same,survivor count,"dose: 4.0 mg/kg/injection, schedule: Q03HX024 (ip), vehicle: DMSO",8 of 8
same,survivor count,"dose: 4.0 mg/kg/injection, schedule: Q04DX003 (ip), vehicle: DMSO",8 of 8
same,survivor count,"dose: 4.0 mg/kg/injection, schedule: Q04DX003 (ip), vehicle: clinical formulation",4 of 4
same,survivor count,"dose: 4.0 mg/kg/injection, schedule: Q04DX003 (ip), vehicle: saline",4 of 4
same,survivor count,"dose: 4.0 mg/kg/injection, schedule: Q08DX002 (ip), vehicle: DMSO",8 of 8
same,survivor count,"dose: 8.0 mg/kg/injection, schedule: Q01DX001 (ip), vehicle: DMSO",8 of 8
same,survivor count,"dose: 8.0 mg/kg/injection, schedule: Q01DX001 (sc), vehicle: DMSO",8 of 8
same,survivor count,"dose: 8.0 mg/kg/injection, schedule: Q01DX009 (ip), vehicle: DMSO",8 of 8
same,survivor count,"dose: 8.0 mg/kg/injection, schedule: Q01DX009 (oral), vehicle: DMSO",8 of 8
same,survivor count,"dose: 8.0 mg/kg/injection, schedule: Q01DX009 (sc), vehicle: DMSO",8 of 8
same,survivor count,"dose: 8.0 mg/kg/injection, schedule: Q03HX008 (ip), vehicle: DMSO",8 of 8
same,survivor count,"dose: 8.0 mg/kg/injection, schedule: Q03HX016 (ip), vehicle: DMSO",8 of 8
same,survivor count,"dose: 8.0 mg/kg/injection, schedule: Q03HX024 (ip), vehicle: DMSO",8 of 8
same,survivor count,"dose: 8.0 mg/kg/injection, schedule: Q04DX003 (ip), vehicle: DMSO",8 of 8
same,survivor count,"dose: 8.0 mg/kg/injection, schedule: Q04DX003 (ip), vehicle: clinical formulation",4 of 4
same,survivor count,"dose: 8.0 mg/kg/injection, schedule: Q04DX003 (ip), vehicle: saline",4 of 4
same,survivor count,"dose: 8.0 mg/kg/injection, schedule: Q08DX002 (ip), vehicle: DMSO",8 of 8
same,survivor count,"dose: 16.0 mg/kg/injection, schedule: Q01DX001 (ip), vehicle: DMSO",8 of 8
same,survivor count,"dose: 16.0 mg/kg/injection, schedule: Q01DX001 (oral), vehicle: DMSO",8 of 8
same,survivor count,"dose: 16.0 mg/kg/injection, schedule: Q01DX001 (sc), vehicle: DMSO",8 of 8
same,survivor count,"dose: 16.0 mg/kg/injection, schedule: Q01DX009 (ip), vehicle: DMSO",8 of 8
same,survivor count,"dose: 16.0 mg/kg/injection, schedule: Q01DX009 (oral), vehicle: DMSO",8 of 8
same,survivor count,"dose: 16.0 mg/kg/injection, schedule: Q01DX009 (sc), vehicle: DMSO",8 of 8
same,survivor count,"dose: 16.0 mg/kg/injection, schedule: Q03HX008 (ip), vehicle: DMSO",4 of 8
same,survivor count,"dose: 16.0 mg/kg/injection, schedule: Q03HX016 (ip), vehicle: DMSO",4 of 8
same,survivor count,"dose: 16.0 mg/kg/injection, schedule: Q03HX024 (ip), vehicle: DMSO",0 of 8
same,survivor count,"dose: 16.0 mg/kg/injection, schedule: Q04DX003 (ip), vehicle: DMSO",8 of 8
same,survivor count,"dose: 16.0 mg/kg/injection, schedule: Q04DX003 (ip), vehicle: clinical formulation",4 of 4
same,survivor count,"dose: 16.0 mg/kg/injection, schedule: Q04DX003 (ip), vehicle: saline",4 of 4
same,survivor count,"dose: 16.0 mg/kg/injection, schedule: Q08DX002 (ip), vehicle: DMSO",8 of 8
same,survivor count,"dose: 32.0 mg/kg/injection, schedule: Q01DX001 (ip), vehicle: DMSO",8 of 8
same,survivor count,"dose: 32.0 mg/kg/injection, schedule: Q01DX001 (oral), vehicle: DMSO",8 of 8
same,survivor count,"dose: 32.0 mg/kg/injection, schedule: Q01DX001 (sc), vehicle: DMSO",7 of 8
same,survivor count,"dose: 32.0 mg/kg/injection, schedule: Q01DX009 (ip), vehicle: DMSO",8 of 8
same,survivor count,"dose: 32.0 mg/kg/injection, schedule: Q01DX009 (oral), vehicle: DMSO",8 of 8
same,survivor count,"dose: 32.0 mg/kg/injection, schedule: Q01DX009 (sc), vehicle: DMSO",8 of 8
same,survivor count,"dose: 32.0 mg/kg/injection, schedule: Q03HX008 (ip), vehicle: DMSO",0 of 8
same,survivor count,"dose: 32.0 mg/kg/injection, schedule: Q03HX016 (ip), vehicle: DMSO",0 of 8
same,survivor count,"dose: 32.0 mg/kg/injection, schedule: Q04DX003 (ip), vehicle: DMSO",8 of 8
same,survivor count,"dose: 32.0 mg/kg/injection, schedule: Q04DX003 (ip), vehicle: clinical formulation",4 of 4
same,survivor count,"dose: 32.0 mg/kg/injection, schedule: Q04DX003 (ip), vehicle: saline",4 of 4
same,survivor count,"dose: 32.0 mg/kg/injection, schedule: Q08DX002 (ip), vehicle: DMSO",7 of 7
same,survivor count,"dose: 64.0 mg/kg/injection, schedule: Q01DX001 (ip), vehicle: DMSO",8 of 8
same,survivor count,"dose: 64.0 mg/kg/injection, schedule: Q01DX001 (oral), vehicle: DMSO",8 of 8
same,survivor count,"dose: 64.0 mg/kg/injection, schedule: Q01DX001 (sc), vehicle: DMSO",8 of 8
same,survivor count,"dose: 64.0 mg/kg/injection, schedule: Q01DX009 (ip), vehicle: DMSO",8 of 8
same,survivor count,"dose: 64.0 mg/kg/injection, schedule: Q01DX009 (oral), vehicle: DMSO",8 of 8
same,survivor count,"dose: 64.0 mg/kg/injection, schedule: Q01DX009 (sc), vehicle: DMSO",8 of 8
same,survivor count,"dose: 64.0 mg/kg/injection, schedule: Q03HX008 (ip), vehicle: DMSO",0 of 8
same,survivor count,"dose: 64.0 mg/kg/injection, schedule: Q04DX003 (ip), vehicle: DMSO",8 of 8
same,survivor count,"dose: 64.0 mg/kg/injection, schedule: Q04DX003 (ip), vehicle: clinical formulation",4 of 4
same,survivor count,"dose: 64.0 mg/kg/injection, schedule: Q04DX003 (ip), vehicle: saline",3 of 4
same,survivor count,"dose: 64.0 mg/kg/injection, schedule: Q08DX002 (ip), vehicle: DMSO",8 of 8
same,survivor count,"dose: 128.0 mg/kg/injection, schedule: Q01DX001 (ip), vehicle: DMSO",7 of 8
same,survivor count,"dose: 128.0 mg/kg/injection, schedule: Q01DX001 (oral), vehicle: DMSO",8 of 8
same,survivor count,"dose: 128.0 mg/kg/injection, schedule: Q01DX001 (sc), vehicle: DMSO",6 of 8
same,survivor count,"dose: 128.0 mg/kg/injection, schedule: Q01DX009 (oral), vehicle: DMSO",1 of 8
same,survivor count,"dose: 128.0 mg/kg/injection, schedule: Q04DX003 (ip), vehicle: DMSO",6 of 8
same,survivor count,"dose: 128.0 mg/kg/injection, schedule: Q04DX003 (ip), vehicle: clinical formulation",4 of 4
same,survivor count,"dose: 128.0 mg/kg/injection, schedule: Q04DX003 (ip), vehicle: saline",1 of 4
same,survivor count,"dose: 128.0 mg/kg/injection, schedule: Q08DX002 (ip), vehicle: DMSO",6 of 8
same,survivor count,"dose: 256.0 mg/kg/injection, schedule: Q01DX001 (ip), vehicle: DMSO",0 of 8
same,survivor count,"dose: 256.0 mg/kg/injection, schedule: Q01DX001 (oral), vehicle: DMSO",2 of 8
same,survivor count,"dose: 256.0 mg/kg/injection, schedule: Q01DX001 (sc), vehicle: DMSO",0 of 8
same,survivor count,"dose: 256.0 mg/kg/injection, schedule: Q01DX009 (oral), vehicle: DMSO",0 of 8
same,survivor count,"dose: 256.0 mg/kg/injection, schedule: Q08DX002 (ip), vehicle: DMSO",0 of 8
same,survivor count,"dose: 512.0 mg/kg/injection, schedule: Q01DX001 (ip), vehicle: DMSO",0 of 8
same,survivor count,"dose: 512.0 mg/kg/injection, schedule: Q01DX001 (oral), vehicle: DMSO",1 of 8
same,survivor count,"dose: 512.0 mg/kg/injection, schedule: Q01DX001 (sc), vehicle: DMSO",0 of 8
same,survivor count,"dose: 1024.0 mg/kg/injection, schedule: Q01DX001 (oral), vehicle: DMSO",0 of 8
